# For some of these results: A note “side channel” means that the fit belongs to a control or component signal, not to the main read-out. Activity calls are given as the source filed them. Unless noted, calls come from the whole dose curve.
# By UniProt entry, the sequences of proteins in these tests, tags left out. Where a name states a change or a piece, a line headed by the entry shows the natural chain unless it says otherwise.
# UniProt P03372, whole entry, looked up: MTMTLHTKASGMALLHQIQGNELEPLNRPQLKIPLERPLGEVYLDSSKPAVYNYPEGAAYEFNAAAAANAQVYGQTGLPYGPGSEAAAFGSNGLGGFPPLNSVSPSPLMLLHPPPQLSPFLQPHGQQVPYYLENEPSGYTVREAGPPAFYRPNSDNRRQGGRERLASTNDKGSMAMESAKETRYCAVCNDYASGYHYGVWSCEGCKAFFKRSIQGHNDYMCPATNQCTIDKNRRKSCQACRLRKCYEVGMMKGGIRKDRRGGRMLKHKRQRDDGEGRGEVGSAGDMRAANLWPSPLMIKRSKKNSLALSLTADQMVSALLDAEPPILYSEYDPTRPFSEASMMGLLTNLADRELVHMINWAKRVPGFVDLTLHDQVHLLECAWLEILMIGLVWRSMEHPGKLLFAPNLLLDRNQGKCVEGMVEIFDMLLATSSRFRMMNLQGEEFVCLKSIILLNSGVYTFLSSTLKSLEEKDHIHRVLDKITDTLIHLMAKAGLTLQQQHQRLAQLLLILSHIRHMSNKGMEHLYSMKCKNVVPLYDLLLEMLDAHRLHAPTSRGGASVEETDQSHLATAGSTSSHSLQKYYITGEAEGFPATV
# UniProt Q03181: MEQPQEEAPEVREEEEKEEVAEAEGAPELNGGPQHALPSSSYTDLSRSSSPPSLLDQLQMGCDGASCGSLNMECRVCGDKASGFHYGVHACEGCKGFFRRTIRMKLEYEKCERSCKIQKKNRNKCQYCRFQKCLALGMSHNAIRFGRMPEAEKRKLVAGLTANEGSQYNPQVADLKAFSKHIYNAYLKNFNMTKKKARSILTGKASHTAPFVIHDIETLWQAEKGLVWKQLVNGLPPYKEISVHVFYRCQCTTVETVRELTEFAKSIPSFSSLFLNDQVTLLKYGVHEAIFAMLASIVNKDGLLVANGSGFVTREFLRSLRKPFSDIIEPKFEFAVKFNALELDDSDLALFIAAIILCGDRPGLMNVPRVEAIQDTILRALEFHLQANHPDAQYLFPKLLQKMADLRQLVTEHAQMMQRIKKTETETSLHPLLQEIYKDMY
# UniProt P10275: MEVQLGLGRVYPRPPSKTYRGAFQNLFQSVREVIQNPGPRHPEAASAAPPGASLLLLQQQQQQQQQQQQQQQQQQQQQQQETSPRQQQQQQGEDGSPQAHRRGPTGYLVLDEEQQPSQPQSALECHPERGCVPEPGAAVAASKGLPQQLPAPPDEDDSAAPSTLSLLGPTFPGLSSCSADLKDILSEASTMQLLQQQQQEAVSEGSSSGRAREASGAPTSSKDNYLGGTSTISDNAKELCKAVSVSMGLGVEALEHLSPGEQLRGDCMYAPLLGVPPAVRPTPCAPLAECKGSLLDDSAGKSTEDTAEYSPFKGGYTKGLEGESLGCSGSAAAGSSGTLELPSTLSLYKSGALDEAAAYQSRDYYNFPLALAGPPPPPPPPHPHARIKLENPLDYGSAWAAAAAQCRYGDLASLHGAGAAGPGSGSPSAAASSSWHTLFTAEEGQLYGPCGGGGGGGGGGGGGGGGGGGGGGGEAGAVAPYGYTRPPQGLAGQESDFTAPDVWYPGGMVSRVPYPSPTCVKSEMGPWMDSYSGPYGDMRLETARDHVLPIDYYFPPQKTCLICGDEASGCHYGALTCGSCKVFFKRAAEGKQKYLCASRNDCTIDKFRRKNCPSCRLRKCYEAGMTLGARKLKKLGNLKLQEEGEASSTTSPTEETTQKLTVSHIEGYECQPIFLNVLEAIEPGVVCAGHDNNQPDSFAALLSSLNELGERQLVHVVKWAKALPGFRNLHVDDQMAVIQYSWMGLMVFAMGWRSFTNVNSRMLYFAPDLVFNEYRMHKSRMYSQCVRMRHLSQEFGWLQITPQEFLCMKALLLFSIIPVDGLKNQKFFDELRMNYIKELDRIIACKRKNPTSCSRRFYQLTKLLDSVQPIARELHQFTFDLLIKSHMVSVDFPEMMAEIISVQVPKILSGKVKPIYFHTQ
# UniProt Q96RI1: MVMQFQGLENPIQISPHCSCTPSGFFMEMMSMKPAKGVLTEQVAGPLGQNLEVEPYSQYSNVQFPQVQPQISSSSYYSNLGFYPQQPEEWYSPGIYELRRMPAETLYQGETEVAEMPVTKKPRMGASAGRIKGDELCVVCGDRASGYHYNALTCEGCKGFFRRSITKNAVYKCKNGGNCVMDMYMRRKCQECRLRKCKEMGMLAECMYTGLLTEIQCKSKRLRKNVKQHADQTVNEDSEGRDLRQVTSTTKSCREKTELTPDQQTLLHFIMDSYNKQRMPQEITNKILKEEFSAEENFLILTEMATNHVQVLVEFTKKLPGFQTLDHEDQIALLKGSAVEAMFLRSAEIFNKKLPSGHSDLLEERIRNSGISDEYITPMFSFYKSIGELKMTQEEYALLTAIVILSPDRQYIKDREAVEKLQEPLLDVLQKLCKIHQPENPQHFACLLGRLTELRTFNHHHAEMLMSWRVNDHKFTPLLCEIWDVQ
# UniProt O94782: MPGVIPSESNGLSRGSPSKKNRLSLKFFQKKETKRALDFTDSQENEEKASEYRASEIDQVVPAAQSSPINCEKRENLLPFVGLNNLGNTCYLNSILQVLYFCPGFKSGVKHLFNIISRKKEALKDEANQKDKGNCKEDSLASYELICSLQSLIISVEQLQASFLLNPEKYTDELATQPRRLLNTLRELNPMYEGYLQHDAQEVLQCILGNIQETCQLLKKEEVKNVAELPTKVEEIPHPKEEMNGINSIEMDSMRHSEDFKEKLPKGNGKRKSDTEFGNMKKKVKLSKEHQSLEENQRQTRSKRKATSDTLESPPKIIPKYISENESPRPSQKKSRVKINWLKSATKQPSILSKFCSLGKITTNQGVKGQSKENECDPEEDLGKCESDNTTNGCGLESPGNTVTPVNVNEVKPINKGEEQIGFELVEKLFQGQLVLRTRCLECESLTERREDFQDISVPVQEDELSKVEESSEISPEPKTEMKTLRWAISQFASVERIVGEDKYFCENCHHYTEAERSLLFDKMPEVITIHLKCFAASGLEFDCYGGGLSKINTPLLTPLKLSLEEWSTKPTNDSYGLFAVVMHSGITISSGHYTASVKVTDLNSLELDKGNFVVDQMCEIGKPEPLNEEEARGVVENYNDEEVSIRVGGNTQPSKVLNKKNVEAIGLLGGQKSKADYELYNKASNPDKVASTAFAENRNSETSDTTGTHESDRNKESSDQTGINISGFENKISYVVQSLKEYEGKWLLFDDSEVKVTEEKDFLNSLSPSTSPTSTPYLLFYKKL
# Assays:
# [1] = qHTS for Inhibitors of Cell Surface uPA Generation: Validation Assay (AID 493164; active = well fitted curve in the direction sought with a large enough effect; inconclusive = small, poorly fitted or top-dose-only effect, or another doubt; inactive = no such curve, though single readings can be large; an effect the other way counts as inactive or inconclusive); conditions: mouse cells, plasminogen activation
# Procedure, shortened: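 ATP-Lite luminescence read-out: ATP remains high when uPA activity-dependent LF translocation into the cytoplasm is blocked. RAW 264.7 cells, 18 h compound exposure at 37 C; 7-point titration, 2.45 nM to 38.3 uM final.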
# [2] = biological target: Estrogen receptor (Homo sapiens) (UniProt P03372); test: qHTS assay for small molecule antagonists of estrogen receptor alpha signaling (AID 588513; active = well fitted curve in the direction sought with a large enough effect in the signal ratio, with a control signal flat, not every such curve was filed as active; inconclusive = small, poorly fitted or top-dose-only effect, or effect the other way, or a change in a side signal; inactive = no such curve, though single readings can be large or run the other way; the % refers to the signal ratio; note: potency is the fitted concentration of half-maximal effect); conditions: ER-alpha-UAS-bla HEK293, beta-lactamase ratio, antagonist mode; activity, negative = inhibition: at 76.9 µM (top of the series) unless noted
# Procedure, shortened: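 Antagonist-mode qHTS in ER-alpha-UAS-bla HEK 293 cells: compound titration, 0.5nM estradiol for 18 h, CCF4 fluorescence, Hill-derived IC50.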
# [3] = biological target: Glucocorticoid receptor (Homo sapiens) (UniProt P04150); test: qHTS assay for small molecule agonists of glucocorticoid receptor signaling (AID 588532; active = well fitted curve in the direction sought with a large enough effect in the signal ratio, with a control signal flat; inconclusive = small, poorly fitted or top-dose-only effect, or a change in a side signal; inactive = no such curve, though single readings can be large or run the other way; the % refers to the signal ratio; note: potency is the fitted concentration of half-maximal effect;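 for activation: 100% = dexamethasone at 0.1 µM and 0% = DMSO only wells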); conditions: HeLa MMTV-bla, beta-lactamase ratio, agonist, 18 h; activation: hits give high values, percent of dexamethasone control, DMSO zero
# Procedure, shortened: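 Cells were plated and rested 3-5 h at 37 C, compounds were added in titration and incubated 18 h, then CCF4 substrate was loaded for 2 h at RT before reading blue/green fluorescence. EC50 came from Hill-equation fitting.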
# [4] = biological target: Peroxisome proliferator-activated receptor delta (Homo sapiens) (UniProt Q03181); test: qHTS assay for small molecule antagonists of peroxisome proliferator-activated receptor delta signaling (AID 588535; active = well fitted inhibition curve with a large enough effect in the signal ratio, with a control signal flat, not every such curve was filed as active; inconclusive = small, poorly fitted or top-dose-only effect, or effect the other way, or a change in a side signal; inactive = no such curve, though single readings can be large or run the other way; the % refers to the signal ratio; note: potency is the fitted concentration of half-maximal effect); conditions: HEK293T PPARd-UAS-bla, beta-lactamase FRET ratio, 18 h; activity change, negative = inhibition: at 76.7 µM (top of the series) unless noted
# Procedure, shortened: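 Fluorescence from CCF4-loaded GeneBLAzer PPAR-delta-UAS-bla HEK293T cells (2 hrs RT loading) quantified reporter inhibition after an 18 hr, 37 C compound exposure across a titration.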
# [5] = biological target: Vitamin D3 receptor (Homo sapiens) (UniProt P11473); test: qHTS assay for small molecule antagonists of vitamin D receptor signaling (AID 588541); conditions: HEK293T VDR-UAS-bla, beta-lactamase ratio, antagonist mode; activity change, negative = inhibition: at 76.7 µM (top of the series); note: potency is the fitted concentration of half-maximal effect;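 for activity change, negative = inhibition: receptor activated by calcitriol during compound treatment; % is set by controls: 0 for no effect and ±100 for the full control effect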
# [6] = biological target: Androgen receptor (Homo sapiens) (UniProt P10275); test: qHTS assay for small molecule agonists of androgen receptor signaling (AID 588515; active = well fitted curve in the direction sought with a large enough effect in the signal ratio, with a control signal flat; inconclusive = small, poorly fitted or top-dose-only effect, or effect the other way, or a change in a side signal; inactive = no such curve, though single readings can be large or run the other way; the % refers to the signal ratio; note: potency is the fitted concentration of half-maximal effect); conditions: AR-UAS-bla HEK293, beta-lactamase ratio, agonist 16 h; activation: hits give high values
# Procedure, shortened: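 Stimulation of an AR-responsive β-lactamase reporter in GripTite HEK293 cells was measured after 16 h compound exposure at 37 °C, via CCF4 fluorescence after 2 h RT. EC50 from Hill fits, normalized to R1881 at 30 nM.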
# [7] = biological target: Androgen receptor (Homo sapiens) (UniProt P10275); test: qHTS assay for small molecule antagonists of androgen receptor signaling (AID 588516; active = well fitted curve in the direction sought with a large enough effect in the signal ratio, with a control signal flat, not every such curve was filed as active; inconclusive = small, poorly fitted or top-dose-only effect, or effect the other way, or a change in a side signal; inactive = no such curve, though single readings can be large or run the other way; the % refers to the signal ratio; note: % is set by controls: 0 for no effect and ±100 for the full control effect); conditions: AR-UAS-bla HEK293, beta-lactamase ratio, antagonist mode, 16 h; activity change, negative = inhibition: at 76.8 µM (top of the series)
# Procedure, shortened: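 Antagonist mode: inhibition of R1881-stimulated (10 nM final) bla reporter in GeneBLAzer AR HEK 293 cells, 16 h at 37C, compounds titrated. IC50 and efficacy from Hill-equation fits of 405/460–530 nm FRET ratios.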
# [8] = biological target: Bile acid receptor (Homo sapiens) (UniProt Q96RI1); test: qHTS assay for small molecule antagonists of farnesoid X receptor signaling (AID 588526); conditions: HEK293T FXR-UAS-bla, beta-lactamase ratio, antagonist mode; activity change, negative = inhibition: at 76.7 µM (top of the series); note: % is set by controls: 0 for no effect and ±100 for the full control effect
# Procedure, shortened: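 Antagonist mode: titrated compounds tested against chenodeoxycholic acid stimulation (normalized to 50 uM CDCA and DMSO) in GeneBLAzer HEK293T cells for 16 h. Beta-lactamase read by CCF4 fluorescence; IC50 from Hill fits.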
# [9] = biological target: Ubiquitin carboxyl-terminal hydrolase 1 (Homo sapiens) (UniProt O94782); test: Inhibitors of USP1/UAF1: Pilot qHTS (AID 504865; active = well fitted curve in the direction sought with a large enough effect; inconclusive = small, poorly fitted or top-dose-only effect, or another doubt; inactive = no such curve, though single readings can be large; an effect the other way counts as inactive or inconclusive; note: potency is the fitted concentration of half-maximal effect; nearly all actives have a fitted effect of over 35% in size); conditions: purified USP1/UAF1, Ub-rhodamine cleavage fluorescence; series mostly up to 114 µM
# Procedure, shortened: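 Enzyme-free wells gave the negative control, while test wells held 1nM USP1/UAF1 preincubated with compound for 15 min at room temperature. Ub-Rho at 150nM final started the reaction, and fluorescence at 480/540 nm was recorded kinetically.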
# [10] = biological target: Peroxisome proliferator-activated receptor gamma (Homo sapiens) (UniProt P37231); test: qHTS assay for small molecule agonists of peroxisome proliferator-activated receptor gamma signaling (AID 588536; active = well fitted curve in the direction sought with a large enough effect in the signal ratio, with a control signal flat, not every such curve was filed as active; inconclusive = small, poorly fitted or top-dose-only effect, or effect the other way, or a change in a side signal; inactive = no such curve, though single readings can be large or run the other way; the % refers to the signal ratio; note: potency is the fitted concentration of half-maximal effect); conditions: HEK293 PPARg-UAS-bla, beta-lactamase ratio, 16 h; activation: at 76.7 µM (top of the series), percent of rosiglitazone response, DMSO as zero
# Procedure, shortened: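 This is an agonist-mode beta-lactamase reporter assay in HEK293 PPAR-gamma-UAS-bla cells with 1% charcoal/dextran FBS. Compound titrations ran 16 h at 37 C before CCF4 detection. EC50 and efficacy are Hill fits scaled to 2 uM rosiglitazone (100%) and DMSO basal.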
# [11] = biological target: Peroxisome proliferator-activated receptor gamma (Homo sapiens) (UniProt P37231); test: qHTS assay for small molecule antagonists of peroxisome proliferator-activated receptor gamma signaling (AID 588537; active = well fitted inhibition curve with a large enough effect in the signal ratio, with a control signal flat, not every such curve was filed as active; inconclusive = small, poorly fitted or top-dose-only effect, or effect the other way, or a change in a side signal; the % refers to the signal ratio; note: potency is the fitted concentration of half-maximal effect); conditions: HEK293 PPARg-UAS-bla, beta-lactamase ratio, antagonist mode; activity, negative = inhibition: at 76.8 µM (top of the series)
# Procedure, shortened: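 Fluorescence at 460 and 530 nm (405 nm excitation) reported beta-lactamase cleavage of CCF4 after 2 h room-temperature loading. HEK293 reporter cells in 1% charcoal/dextran-treated FBS had received compound and rosiglitazone for 16 h.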
smiles,measurement,setting,value
Cc1ccc(S(=O)(=O)N[C@@H](CCCCN)C(=O)CCl)cc1,Potency,[1],"inconclusive: 11.7 µM [inhibitor, partial curve, poor fit]"
Cc1cc2c(C(C)C)c(O)c(O)c(C=O)c2c(O)c1-c1c(C)cc2c(C(C)C)c(O)c(O)c(C=O)c2c1O,Potency,[2],"inconclusive: 3.98 µM [side channel, rising, full curve, poor fit]"
same,Potency,[3],"inconclusive: 50.1 µM [side channel, falling, single point]"
same,Potency,[4],"inconclusive: 15.8 µM [side channel, rising, partial curve]"
same,Potency,[5],"inconclusive: 14.1 µM [side channel, rising, partial curve, poor fit]"
C=C(C)[C@H]1Cc2c(ccc3c2O[C@@H]2COc4cc(OC)c(OC)cc4[C@@H]2C3=O)O1,Potency,[6],"inconclusive: 0.447 µM [side channel, rising, full curve, poor fit]"
same,"activity change, negative = inhibition",[7],inconclusive: -118%
same,"activity change, negative = inhibition",[4],inconclusive: -42.7%
CNCC(O)c1ccc(O)cc1 (centres undefined),Potency,[8],inactive
same,activation,[3],inactive: 9.17%
Cc1cc(O)ccc1Cl,Potency,[9],"inconclusive: 63.1 µM [inhibitor, partial curve, poor fit]"
same,Potency,[3],"inconclusive: 50.1 µM [side channel, falling, single point]"
same,Potency,[5],inactive
[Cl-].[Cl-].[Hg+2],Potency,[9],active: 3.98 µM
same,Potency,[2],active: 2.51 µM [inconclusive]
same,Potency,[4],"inconclusive: 44.7 µM [inhibitor, partial curve, poor fit]"
same,Potency,[10],"inconclusive: 44.7 µM [side channel, falling, single point]"
same,Potency,[11],"inconclusive: 28.2 µM [side channel, rising, single point]"
same,Potency,[5],"inconclusive: 0.708 µM [side channel, rising, full curve, poor fit]"

# For reference, some entries already given.
smiles,measurement,setting,value
CNCC(O)c1ccc(O)cc1 (centres undefined),activation,[3],inactive: 9.17%
Cc1cc(O)ccc1Cl,Potency,[9],"inconclusive: 63.1 µM [inhibitor, partial curve, poor fit]"

# — PubChem BioAssay (NCATS)
